Laboratory results as given in patent US20260014129A1, “MITOCHONDRIAL PYRUVATE METABOLISM INHIBITORS FOR TREATING CHRONIC MYELOID LEUKEMIA” (The University Court of the University of Glasgow, priority 2022, published 2026).

How the values were obtained:
CML CD34+ cells [1] = test: RNA-seq differential gene expression and GSEA of imatinib-treated CML CD34+ cells; format: cell-based, human; settings: imatinib 2 μM, 48 hours, n=4 patient samples
Experimental: RNA was extracted from 200,000 CML CD34+ cells using an RNA easy mini kit (Qiagen) according to the manufacturer's instructions.
Libraries were prepared using the Illumina TruSeq Stranded mRNA LT Kit (Illumina) and run on the Illumina Next Seq 500 using the High Output 75 cycles kit (2×36 cycles, paired end reads, single index; Illumina). FastQ files were generated using Illumina's bcl2fastq (v. 2.20.0.422).
QC, alignment, and parsing of files into count matrices was performed in command line, with subsequent differential gene expression (DGE) analysis performed in R (1.2.1335). Adapter trimming was performed using Scythe (version 0.981), and Sickle (version 0.940), was used to trim bases with quality scores of less than 20. Prior to and after this pre-processing fastqc (version 0.11.2) was run to ascertain sequence quality, alongside the efficacy of the pre-processing steps. Trimmed reads were indexed and aligned using Hisat2 (version 2.1.0). Hisat2 indexes (GRCh38 genome_tran) were obtained from the John Hopkins Center for Computational Biology, 2020. Samtools (version 0.1.19044428cd) view was used to convert the resulting .sam to .bam files, whilst samtools sort was used to sort the .bam files. Assembly was achieved through the use of stringtie (John Hopkins Center for Computational Biology, 2020), with output .gtf files converted to count matrices using the python script prepDE.py (stringtie version 1.3.3b.Linux_x86_64). Reads were assembled using an annotated reference human genome (GRCh38.p13), obtained from GENCODE (GENECODE, 2020). DESeq2 (version 1.26.0) was used to generate results sets from the gene and transcript count matrices. G genes with read counts too low to allow for the calculation of p and adjusted p-values (padj: Benjamini-Hochberg) were removed from the data sets leaving gene and transcript counts of sizes 16,069 and 45,218 respectively.
GSEA (version 4.1) was conducted on pre-ranked lists (ranked by pi score calculated by multiplying LOG fold change by −LOG (corrected p-value)).

CML CD34+ cells [2] = settings: imatinib for 7 days, dataset E-MTAB-2594; cited from earlier work

Q: Which “downregulated genes (number)” value (CML CD34+ cells [1]) does the source give for `Cc1ccc(NC(=O)c2ccc(CN3CCN(C)CC3)cc2)cc1Nc1nccc(-c2cccnc2)n1` [imatinib] here?
A: 576 genes

Q: And the “downregulated genes (share of expressed genes)” value (CML CD34+ cells [1])?
A: 3.6%

Q: And the “upregulated genes (number)” value (CML CD34+ cells [1])?
A: 452 genes

Q: What about the “upregulated genes (share of expressed genes)” value (CML CD34+ cells [1]) of the same compound?
A: 2.8%

Q: And the “significantly different expressed genes (number)” value (CML CD34+ cells [2])?
A: 10,762

Q: What about the “significantly different expressed genes (share)” value (CML CD34+ cells [2]) of the same compound?
A: 56%
